Legend:
Type in all cases: cell-based
Huh7 = experiment: NCI-60 sulforhodamine B (SRB) cytotoxicity assay, Huh7; settings: Homo sapiens, Huh-7, 72 h, read-out: IC50 Huh7
Experimental: (§1) The bioactivities of the synthesized chalcones were assessed on human liver cancer cell lines and on DPSCs with NCI-SRB assay in vitro. DPSCs used to asses the bioactivity of chalcones on untransformed control cells with the potential of hepatic lineage. […] We also included 5-Fluorouracil which is used in clinics for gastrointestinal cancers and Sorafenib. All results were normalized to DMSO negative control measurements. The experiment was performed in triplicate.
(§2) Well differentiated human primary liver cancer cell lines Huh7, HepG2 and Hep3B, and poorly differentiated Mahlavu, FOCUS and SNU475 HCC cells were cultured in Dulbecco’s Modified Eagle’s Standard (DMEM) medium supplemented with 10% Fetal Bovine Serum (FBS), 100 units/mL penicillin and 100 µg/mL streptomycin (Gibco, Invitrogen, Carlsbad, CA, USA). 0.1 mM nonessential amino acids (NEAA) which are specific to HCC cell lines also added to culture media. Cells were cultured in a 5% CO2 incubator at 37^∘C
(§3) Primary liver cancer cells Huh7, HepG2, Hep3B, Mahlavu, FOCUS, Snu475 along with hepatic progenitor Dental pulp stem cells were seeded into 96-well plates (1,000–3,000 HCC cell/well and 10,000 cells DPSC/well ) for 24 h. The cells were then treated with increasing concentrations of the chalcones ( 2.5-40μM ). DMSO (AppliChem Biochemica, Darmstadt, Germany) was used as negative control. […]

HepG2 = experiment: NCI-60 sulforhodamine B (SRB) cytotoxicity assay, HepG2; settings: Homo sapiens, 72 h, 2.5–40 μM, triplicate
Experimental: as §1, §2, §3

Hep3B = experiment: NCI-60 sulforhodamine B (SRB) cytotoxicity assay, Hep3B; settings: Homo sapiens, 72 h, 2.5–40 μM, triplicate
Experimental: as §1, §2, §3

Mahlavu = experiment: NCI-60 sulforhodamine B (SRB) cytotoxicity assay, Mahlavu; settings: Homo sapiens, 72 h, 2.5–40 μM, triplicate
Experimental: as §1, §2, §3

FOCUS = experiment: NCI-60 sulforhodamine B (SRB) cytotoxicity assay, FOCUS; settings: Homo sapiens, 72 h, 2.5–40 μM, triplicate
Experimental: as §1, §2, §3

SNU475 = experiment: NCI-60 sulforhodamine B (SRB) cytotoxicity assay, SNU475; settings: Homo sapiens, SNU-475, 72 h, 2.5–40 μM, triplicate
Experimental: as §1, §2, §3

[1] = tested on: dental pulp stem cells (DPSC); experiment: NCI-60 sulforhodamine B (SRB) cytotoxicity assay, dental pulp stem cells; settings: Homo sapiens, 72 h, 2.5–40 μM, triplicate, untransformed control cells

Cc1ccc(/C=C/C(=O)c2ccccc2)cc1 [compound 2]
IC50 (Huh7): 4.1 µM | IC50 (HepG2): 5.8 µM | IC50 (Hep3B): 5.6 µM | IC50 (Mahlavu): 5.1 µM | IC50 (FOCUS): 11.4 µM | IC50 (SNU475): 9.8 µM | IC50 [1]: 28.7 µM
